Measured values taken from patent US20230312741A1.
Changes are numbered by the printed parent chain. Results are given in words; binding and its absence hold for the method and conditions named. Some binding calls cover weakened binding; strength is not graded here.

Legend:
Assay in all cases: flow cytometry, GS-CHO cells with CD73 mutant
[1] = molecular target: T1, CD73 mutant F183A/L184A/N186A (human) (UniProt P21589)
T1 sequence: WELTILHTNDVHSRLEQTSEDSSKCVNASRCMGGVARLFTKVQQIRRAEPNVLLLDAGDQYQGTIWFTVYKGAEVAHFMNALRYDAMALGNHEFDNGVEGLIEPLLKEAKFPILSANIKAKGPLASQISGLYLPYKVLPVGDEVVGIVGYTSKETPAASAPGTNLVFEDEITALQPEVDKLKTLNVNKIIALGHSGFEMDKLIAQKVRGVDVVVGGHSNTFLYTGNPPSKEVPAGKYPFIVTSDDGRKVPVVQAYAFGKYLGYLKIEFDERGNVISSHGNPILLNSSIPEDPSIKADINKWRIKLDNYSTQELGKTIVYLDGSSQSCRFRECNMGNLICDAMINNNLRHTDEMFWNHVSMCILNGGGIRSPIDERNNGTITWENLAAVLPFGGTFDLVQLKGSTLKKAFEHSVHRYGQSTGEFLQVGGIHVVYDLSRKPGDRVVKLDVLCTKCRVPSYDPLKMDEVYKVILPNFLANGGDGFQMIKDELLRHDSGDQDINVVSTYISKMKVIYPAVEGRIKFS

[2] = molecular target: T2, CD73 mutant H103A/W327A (human) (UniProt P21589)
T2 sequence: T1 sequence with H77A, A157F, A158L, A160N, W301A

[3] = molecular target: T3, CD73 mutant K145A/K147A (human) (UniProt P21589)
T3 sequence: T1 sequence with K119A, K121A, A157F, A158L, A160N

[4] = molecular target: T4, CD73 mutant K179A/E180A (human) (UniProt P21589)
T4 sequence: T1 sequence with K153A, E154A, A157F, A158L, A160N

[5] = molecular target: T5, CD73 mutant K291A/E293A (human) (UniProt P21589)
T5 sequence: T1 sequence with A157F, A158L, A160N, K265A, E267A

Measured: binding

B1: ADI-37505 (antibody, human IgG4 S228P, kappa, F234A L235A, V domains shown)
VH: QVQLVESGGGLVQPGGSLRLSCAASGFTFSNYAMTWVRQAPGKGLEWVSAISGRGTATYYADSVKGRFTISRDNSKNTLYLQMNSLRAEDTAVYYCARGGPYGSGSYWDTFDYWGQGTLVTVSS
VL: EIVMTQSPATLSVSPGERATLSCRASQSVSSNLAWYQQKPGQAPRLLIYGASTRATGIPARFSGSGSGTEFTLTISSLQSEDFAVYYCQQYTNHYTFGGGTKVEIKR
binds: all assays above

B2: ADI-37506 (antibody, human IgG4 S228P, kappa, F234A L235A, V domains shown)
VH: B1 VH with Q1E, V5L, Y32L, T35S, G55A, A57S
VL: B1 VL
binds: all assays above
